Results reported in doi:10.1101/2022.06.07.495003.
Like-named read-outs stand apart in the source and are kept apart here. Results are given in words; binding and its absence hold for the method and conditions named. Some results given as binding are weak or reduced against the parent protein; the word gives no strength.

Amino acid sequences for entries named in this document (tags omitted). Residues count along the entry.
UniProt P29317, residues 24-976: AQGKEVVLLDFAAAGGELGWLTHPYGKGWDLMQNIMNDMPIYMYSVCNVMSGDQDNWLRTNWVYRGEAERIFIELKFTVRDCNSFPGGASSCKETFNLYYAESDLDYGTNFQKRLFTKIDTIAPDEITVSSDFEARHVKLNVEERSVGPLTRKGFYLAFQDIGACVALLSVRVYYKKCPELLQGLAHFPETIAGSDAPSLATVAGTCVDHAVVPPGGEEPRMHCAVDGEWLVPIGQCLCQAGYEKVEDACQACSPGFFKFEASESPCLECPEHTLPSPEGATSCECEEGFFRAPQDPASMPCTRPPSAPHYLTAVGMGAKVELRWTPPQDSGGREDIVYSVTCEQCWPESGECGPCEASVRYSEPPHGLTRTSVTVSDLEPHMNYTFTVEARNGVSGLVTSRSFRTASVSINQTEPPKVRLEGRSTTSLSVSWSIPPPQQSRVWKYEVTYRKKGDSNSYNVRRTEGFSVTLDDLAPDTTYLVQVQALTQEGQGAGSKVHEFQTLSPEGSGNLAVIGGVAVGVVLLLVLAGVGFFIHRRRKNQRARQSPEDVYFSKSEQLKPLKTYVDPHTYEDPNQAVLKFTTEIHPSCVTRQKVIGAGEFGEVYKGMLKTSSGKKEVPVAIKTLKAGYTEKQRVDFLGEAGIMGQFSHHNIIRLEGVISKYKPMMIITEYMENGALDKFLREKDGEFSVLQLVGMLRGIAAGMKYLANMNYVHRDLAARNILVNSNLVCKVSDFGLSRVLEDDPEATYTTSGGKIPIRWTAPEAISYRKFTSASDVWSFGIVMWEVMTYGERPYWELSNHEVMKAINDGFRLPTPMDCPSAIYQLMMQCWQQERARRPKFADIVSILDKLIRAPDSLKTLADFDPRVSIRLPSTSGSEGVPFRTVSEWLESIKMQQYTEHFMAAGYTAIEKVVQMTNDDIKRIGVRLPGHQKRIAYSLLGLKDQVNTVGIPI

Assays:
EphA2-eYFP [1] = target: EphA2-eYFP (UniProt P29317); test: fluorescence intensity fluctuation
EphA2-eYFP [2] = target: EphA2-eYFP (UniProt P29317); test: fluorescence intensity fluctuation; remark: listed apart in the source

binding (EphA2-eYFP [1]): binds | binding (EphA2-eYFP [2]): binds
Substance: EphA2-eYFP (from UniProt P29317 24-976) (receptor)
